Measurements taken from patent publication US20250002574A1.
No constants are given. Whether binding was seen depends on the method and setting. Some binding calls cover weakened binding; strength is not graded here.

T1: IL-11 stably expressed on CHO cells (membrane-IL-11 CHO) (UniProt P20809)
T1 sequence (looked up): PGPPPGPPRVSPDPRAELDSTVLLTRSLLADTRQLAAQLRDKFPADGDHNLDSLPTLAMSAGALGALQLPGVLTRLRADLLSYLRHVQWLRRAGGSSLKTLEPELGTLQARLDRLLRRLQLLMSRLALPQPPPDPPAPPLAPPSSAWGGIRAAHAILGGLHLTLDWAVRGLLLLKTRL


Legend:
IL-11-Fc protein = IL-11-Fc protein (UniProt P20809); test: competition ELISA: IL-11R-His coated, IL-11-Fc co-incubated with a dilution series of the antibody, bound IL-11-Fc detected with HRP goat anti-IgG-Fc; blocked partner IL-11R-His
[1] = target: recombinant IL-11 (LSBio, LS-G132887-10) (UniProt P20809); test: ELISA, cytokine coated
[2] = target: T1, IL-11 stably expressed on CHO cells (membrane-IL-11 CHO); test: flow cytometry on membrane-IL-11 CHO cells, detection with goat-anti-Fc-FITC
[3] = target: T1, IL-11 stably expressed on CHO cells (membrane-IL-11 CHO); test: flow cytometry on membrane-IL-11 CHO cells

| binding (IL-11-Fc protein) | binding [1] | binding [2] | binding [3] | Binder |
| --- | --- | --- | --- | --- |
| binds | binds | – | – | 3-6A4 (recombinant, expressed in CHO, Example 6) (antibody, human IgG1, kappa, V domains shown) VH: QIQLVQSGPELKKPGETVKISCKASGYTFTTNGINWVKQAAGKGLKWMGWINTNTGEPTNAEELKGRFAFSLETSASTAYLQINNLKNEDAAIYFCAREGAFGLDYWGQGTSVTVSS VL: SIVMTQSPKFLLVSAGDRVIITCKASQSVSNDVVWYQQKPGQSPKLLIYYGSHRNTGVPTRFTGSGYGTDFTFTISTVQAEDLAVYFCQQDFFSPWTFGGGTKLEIKR |
| – | – | binds | binds | MIL-11 mab-03 (antibody, IgG1, V domains shown) VH: QVQLVQSGAEVKKPGASVKVSCKASDYTFTNYWLGWVRQAPGQGLEWMGHIYPGGGYTNYNEKFKGRVTMTRDTSTSTVYMELSSLRSEDTAVYYCARVSSGNDALDFWGQGTLVTVSS VL: EIVLTQSPATLSLSPGERATLSCRASESVDEYGISFMNWFQQKPGQAPRLLIYSASNQASGIPARFSGSGSGTDFTLTISSLEPEDFAVYFCQQSKELPWTFGGGTKLEIK |
| – | – | binds | binds | VH1+VL3 full-length humanized antibody (antibody, human IgG1, kappa, V domains shown) VH: QVQLVQSGAEVKKPGASVKVSCKASDYTFTNYWLGWVRQAPGQGLEWMGHIYPGGGYTNYNEKFKGRVTMTRDTSTSTVYMELSSLRSEDTAVYYCARVRSGNDALDFWGQGTLVTVSS VL: EIVLTQSPATLSLSPGERATLSCRASESVDEYGISFMNWFQQKPGQAPRLLIYSASNQGSGIPARFSGSGSGTDFTLTISSLEPEDFAVYFCQQSKEVPWTFGGGTKLEIKR |
| – | – | binds | binds | MIL-11 mab-01 (antibody, IgG1, V domains shown) VH: QVQLVQSGAEVKKPGASVKVSCKASDYTFTNYWLGWVRQAPGQGLEWMGHIYPGGGYTNYNEKFKGRVTMTRDTSTSTVYMELSSLRSEDTAVYYCARVSSGNDALDLWGQGTLVTVSS VL: EIVLTQSPATLSLSPGERATLSCRASESVDEYGISFMNWFQQKPGQAPRLLIYSGSNEGSGIPARFSGSGSGTDFTLTISSLEPEDFAVYFCNQSKEVPWTFGGGTKLEIK |
| – | – | binds | binds | MIL-11 mab-02 (antibody, IgG1, V domains shown) VH: QVQLVQSGAEVKKPGASVKVSCKASDYTFTNYWLGWVRQAPGQGLEWMGHIYPGGGYTNYNEKFKGRVTMTRDTSTSTVYMELSSLRSEDTAVYYCARVSSGNDALDFWGQGTLVTVSS VL: EIVLTQSPATLSLSPGERATLSCRASESVDEYGISFMNWFQQKPGQAPRLLIYSASNQGSGIPARFSGSGSGTDFTLTISSLEPEDFAVYFCQQSKELPWTFGGGTKLEIK |
